These results are taken from PubChem BioAssay AID1347423 (Functional Genomics Laboratory (NCATS/FGL), 2020).

About 210 (0.4%) of roughly 52,000 sequences were called active.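 The calls were made as follows: active = gene whose silencing raises cell survival under the drug, median off-target-corrected z-score across its silencing RNAs 2 or more; inactive = the rest.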 Some of the results follow.

This assay can be described thus: Resistance to Poly (ADP-Ribose) Polymerase inhibitor: Gene Identification via Genome-wide siRNA Screen. As to conditions: mouse BRCA2 R2336H ES cells, olaparib, CellTiter-Glo viability; active compounds read high. An outline of the steps: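 Mouse BRCA2 R2336H ES cells were reverse-transfected with siRNA (20 nM final), treated at 48 h with 500 nM olaparib, and read by CellTiter-Glo after 72 h. Scores: MAD-based z per siRNA, median per gene, seed off-target correction.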
(In general: Cellular ATP, detected with luciferase, serves as a proxy for viable cell number.)
Consider CCAUAAAUCAGCUAAAGCATT against Eea1, for which the z-score was inactive: -0.74.

With GGGCAAUUCUAUCAAAGAGTT against Gps1, the z-score was inactive: -1.54.

Turning to GCUGUGUUCAUCCAAAUACTT against Orc5l, the z-score was inactive: -0.819.

With GACGGUACAUCUGCUCAUCTT against Galr3, the z-score is inactive: 0.874.

Take GGAAUAAAAGACCUUGGAUTT against Slc39a7: the z-score is inactive: -1.5.

Take GGUUCUGCUCCAACCUUUGTT against Gtf2b: the z-score is inactive: -2.86.

In the case of CGAUGGUAGAAUUCUUAGATT against Akap9, the z-score was inactive: 0.433.

Consider “GCGGAAUUUGAUCACAUCCTT against C330005M16Rik”, for which the z-score is inactive: 0.612.

Consider CCUACACAUAUGAAGGAGUTT against Fabp2, for which the z-score was inactive: 0.284.

Take GGAAGCGAACGAGACACUUTT against Pla2g4a: the z-score is inactive: 0.943.

For GGAUGUAAUCCACUUCAAGTT against Acox3, the z-score was inactive: 1.68.

As to GGGACCCAAGGAUAUGAAUTT against Zfyve20, the z-score is inactive: 0.725.

For GGAUCUUUGGAGAAAGAGATT against Kcnc3, the z-score is inactive: 0.346.

With “GGAUGUCUUACCAUGGGAATT against A830053O21Rik”, the z-score is inactive: -0.789.

With GCCGAAGCCCUAUUUAUUATT against Artn, the z-score was inactive: -0.365.

As to GGAGACCAAAUAGCAUUUUTT against Olfr504, the z-score is inactive: -0.822.

For GCCCUGGAUCAUUGAGUGATT against Atp2b1, the z-score was inactive: -0.326.

Regarding CGAGAAAUAUAUGAAUGUCTT against Eltd1, the z-score is inactive: -2.1.

For the sequence “GGAGGUCCAAGAGAAAUGUTT against 4933428I03Rik”, the z-score is inactive: 1.97.

Regarding “GGAAAAUUCUGAGUUAAAGTT against 4932414K18Rik”, the z-score was inactive: 0.105.

GCCCUAUACCUUAUUUAAUTT against Ros1: the z-score was inactive: 0.113.

Regarding GGAGUCAGUACUUCAAGAUTT against Zfp148, the z-score is inactive: 0.731.

For the sequence CCCUACACGCAGGAGUUUUTT against Gtf3c1, the z-score was inactive: 0.626.

For the sequence GCUUGUCUACAAAUACUCUTT against Zcwcc1, the z-score was inactive: -0.588.

With GGAUGUCUAUAGUGAGAUUTT against Psg16, the z-score is inactive: -0.802.

Take GGAGAGACUGACAAAAACCTT against Mrvi1: the z-score was inactive: -0.257.

In the case of GCAAGACUCUACACAUCACTT against Nox4, the z-score was inactive: 0.804.

In the case of “GGUACCUGUUAAAUGUUACTT against 2700007P21Rik”, the z-score is inactive: 0.472.

On to GCCUAUAUGGAACACUGGGTT against Mrps6, for which the z-score was inactive: 0.532.

With GGGAUUUCUGGUUUACUUCTT against BC024322, the z-score is inactive: 0.441.

On to GGAAGAUAACAUCAACAAATT against Arl6ip5, for which the z-score was inactive: 1.59.

On to CGGACUCACAGAGCUAAGATT against Tnp2, for which the z-score is inactive: -0.465.

With “GGAGACUUACGAACUUCGUTT against 3110001N18Rik”, the z-score was inactive: -0.36.

“GCUUGAAUUGUGUAGUAAUTT against 6030413G23Rik”: the z-score is inactive: -0.557.

Turning to GGCCGAAUUGUGUCUUGGUTT against Dnmt3a, the z-score was inactive: -1.9.

For the sequence GGAGACUGAGACUUUAGAGTT against Gadd45b, the z-score is inactive: 0.727.

For the sequence GGGUCUGGUUCUGUAACCATT against Pou4f3, the z-score is inactive: -0.226.

As to GGAAAAUACAUUGAUGAGCTT against Xrcc4, the z-score is inactive: 0.301.

For the sequence “GGUGAAAAGAUCAGAAUACTT against 1110025H10Rik”, the z-score was inactive: 0.62.

In the case of CCAGAGGUCACGAUUACUUTT against Pcdha12, the z-score is inactive: -1.15.

With CCUGUUUCACAGCUUCUAUTT against BC002216, the z-score was inactive: 0.582.

As for GGUAGACACACACAUUCAUTT against Ampd3, the z-score is inactive: -0.454.

Turning to GGACCAUUCUUGCGUUCGUTT against Cacng7, the z-score was inactive: -0.244.

For the sequence GGCCGCACCAUGUAUGUCATT against Pck1, the z-score was inactive: -1.54.

On to GCAGGAUCCUUAAUUUGGCTT against Rnh2, for which the z-score is inactive: 1.65.

“GCAAGAGGUCUGAAGUAUGTT against D130016K21Rik”: the z-score was inactive: -0.882.

As to GGCAGACCAUGAAUGCUGUTT against Kcna2, the z-score was inactive: -0.87.

Take “GGCUGUAAAAAUUAGUAUGTT against A630001G21Rik”: the z-score is inactive: -0.305.

Consider CCAUAUGAAAUCCCUGCAUTT against Irs3, for which the z-score was inactive: -2.01.

For “GCUAUUGUAGAGAGCUGAATT against C330023F11Rik”, the z-score is inactive: -3.34.

In the case of “GGUUGGCGAGACUUCUACGTT against 4921523A10Rik”, the z-score is inactive: 0.206.

As to GGAAAUCAACAUGUUAAAGTT against Map4k6, the z-score is inactive: 0.968.

For GCUAUUAAAGAGCCCACAATT against Sh3glb2, the z-score was inactive: 0.56.

Consider “GCAGAUAGAAGACUGGAAUTT against 1700024G13Rik”, for which the z-score was inactive: 0.527.

Consider GGUGAAGGCCUAUGAGAAGTT against Nosip, for which the z-score is inactive: -2.97.

For “GGCCUGGAAUAGAUUUGUGTT against 2210016L21Rik”, the z-score is inactive: 0.581.

Regarding CGCGCCUGAAAAUGUUGAATT against BC027088, the z-score was inactive: 0.934.

Regarding GGAGAGCAGUAUGAGAUCUTT against Galnt10, the z-score was inactive: -0.0698.

CCACAACAUUUGCUAAUAATT against Cysltr2: the z-score was inactive: 0.387.

Regarding GGUAAUUAACAUGAAGUGUTT against Traf4, the z-score is inactive: 0.499.

As for GCAAAUCACACAUUCUCUGTT against Stk32b, the z-score was inactive: 0.853.

Take GCUACUGAACGAGAAUGCCTT against BC036563: the z-score is inactive: 0.797.

For GGAGAAUUGUUUUUACCAGTT against Bbox1, the z-score was inactive: -0.346.

Turning to GGAAAAGGAACUUUAUCUATT against Aprin, the z-score is inactive: -0.44.

With GGCAAGGUGCUGAUUCCCUTT against Itga9, the z-score is inactive: 2.56.

Regarding GCUGACUAAGGCUUGUAAUTT against S100a18, the z-score is inactive: -0.608.

For GGACUAUGUAGUGAAACAUTT against Cai, the z-score is inactive: -0.951.

Take “GCUCAUUCCGUUUAUUAUUTT against 1600020H07Rik”: the z-score is inactive: -0.3.

For the sequence CGAGUUGUAUAGCAGCUCCTT against Dok2, the z-score was inactive: -0.491.

On to GGUGGAUGUCUCAGCAUAATT against Pafah1b2, for which the z-score is inactive: -1.05.

In the case of GGAAAUUUUUCCCAGCUGGTT against Prlpc3, the z-score was inactive: -0.552.

For GCGUGCUGUGUAAGAGUGUTT against Gja4, the z-score is inactive: -0.867.

As to GGAUUCUCUUCCAUCUUACTT against Olfr266, the z-score was inactive: -0.426.

As to GGAGUAUUCAACAUUUGUATT against Trim11, the z-score is inactive: 0.605.

As to CUCUAGCUACUAUUUUCUCTT against Olfr824, the z-score was inactive: -0.473.

Consider GGAUCGAAUGUACCAACGGTT against Rnase4, for which the z-score was inactive: 1.94.

Regarding CCCACCUUAUGGGACAAAATT against Hlf, the z-score was inactive: -0.693.

As to CGACAUGGAGAGAUGCACATT against Galnt14, the z-score is inactive: 0.481.

Consider “CGCAUACAUCAGUGUGGCATT against A730085E03Rik”, for which the z-score is inactive: 1.07.

Turning to CCCUCAAGGCUGAUAAACATT against Il17b, the z-score is inactive: -0.848.

In the case of “GGGCUACUAUUCAUUGAUCTT against 4930550L24Rik”, the z-score was inactive: 0.273.

Consider CCUCUACACUUUAGAUGGUTT against Gnb2-rs1, for which the z-score was inactive: -0.429.

With “CCUCCUACUGUUUAAUGUUTT against 4930539P14Rik”, the z-score was inactive: -1.12.

Take GGAUAAGCAUGAUGACAGUTT against Wbp11: the z-score was inactive: -2.26.

Take CCUUAUUACACACACCCUGTT against Gja3: the z-score is inactive: 0.967.

In the case of GGGAGCUAAUGAGCAAGGATT against Galk1, the z-score is inactive: -0.061.

For the sequence GGAUCAGAUUCUGAAGAGATT against Vcl, the z-score is inactive: 0.267.

Take GCAAAAGUAUCUACUGGCGTT against Clec2: the z-score was inactive: 0.262.

Regarding GGAUGAUAUGCUGUUAGUGTT against Il17rc, the z-score is inactive: -0.666.

Turning to GGGUAUUCCUUCCAACACCTT against Lrrc4, the z-score was inactive: 0.779.

In the case of GCUGGCGGAGCAAACUCAATT against Foxd3, the z-score is inactive: -1.65.

In the case of GGGAAUUUAUAGCUUCAGCTT against Cbln2, the z-score was inactive: 1.32.

Consider GGCUCAAGAAAUUCUGGACTT against Noxo1, for which the z-score was inactive: 0.472.

On to “GCUGUGCAAGGUGAGGAAATT against 1110033J19Rik”, for which the z-score is inactive: -0.613.

Take “GGGACAUUCAUAUGUCUAUTT against C330014B19Rik”: the z-score was inactive: 0.455.

As to GCCUUAGGAUGCAUCUUGUTT against Smarcad1, the z-score was inactive: 1.4.

For GGAGCACUUAGAAAUGUCCTT against Olfr342, the z-score was inactive: 0.0319.

For GGACCCUUAUGACCCUCAUTT against Irf3, the z-score is inactive: 1.96.

With GGACUAUCAUCUGAUGCCATT against AW545966, the z-score is inactive: 0.851.

Consider GGGAAAGACUCAAGGUCCUTT against Olfr586, for which the z-score is inactive: 0.976.

For the sequence “GGAUUUAUUUGCCAACACUTT against 4732495G21Rik”, the z-score is inactive: -0.0888.

With UUUAUACCAAUGCUGUACGTT against LOC384639, the z-score is inactive: -0.344.

“GGUCAAGUUCGCCAUUAAATT against 2310022A10Rik”: the z-score was inactive: 0.252.
